Hit rate of the full screen: of about 53,000 sequences, about 3,700 (7%) were called active.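 The calls were made as follows: active = gene knockdowns whose robust z-score for IL-1 alpha signal is at least 2 or at most -2, so actives lie on both sides; inactive = the rest.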 This is one part of the list.

This assay is described as follows: Components of the Cytosolic LPS Sensing Pathway: Gene Identification via Genome-wide siRNA Screen.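 Also: robust z of the log signal after scaling to non-targeting control siRNA wells of the plate.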 To be noted: RAW264.7 macrophages, IL-1a HTRF, actives lie on both sides, screened at 100 nM (by protocol), cells primed 5 h with Pam3CSK4 first. In a few lines:
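RAW264.7 mouse macrophages reverse-transfected with single siRNAs (100 nM final) for 48h, primed with Pam3CSK4 for 5 hours, then transfected with LipidA for 24 hour. Supernatant IL-1a read by HTRF; values normalized to negative-control median, log-transformed robust z-scores.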
In general terms: In TR-FRET formats the signal depends on donor and acceptor labels being close together.
Regarding GGAUGUCUAGUUAUACAUUTT against Mbd3l1, the z-score is inactive: 1.21.
Regarding GGACCAGGUGAUGAAGAGGTT against Fzd4, the z-score was inactive: -1.03.
For GGGAACAACACAUAAUGGATT against BC002059, the z-score was inactive: 0.617.
GGGUCGGUCUAUUAGGGAUTT against Rhbdf1: the z-score was inactive: 0.727.
For the sequence GCUUAAAGAUCGAUCCCGCTT against Slc38a4, the z-score was inactive: 0.742.
For GGCCAUGGCUACUAUUGUCTT against Tgoln1 the value was inactive: -1.22; for “GCCAAUUGGUUCCCUGUAATT against 1700034E13Rik”, active: -3.04; for CCCUUUGUGUCCUAGAUUGTT against Zfand3, inactive: 0.266.
For GGGUGUGCAUUCUUCUAUUTT against Olfr1242 the value was inactive: 0.536.
In the case of GGUUCUCGCUCUUAUCUGUTT against Angel2, the z-score is inactive: 0.353.
On to GGACAGUGCCUGAUAACCATT against Chrm4, for which the z-score is inactive: -1.31.
For GGAACUUAGAAGUUUACAATT against Caml, the z-score was inactive: -0.0418.
On to GCGAGUUUAAUGUUUAUGCTT against Pdgfra, for which the z-score is inactive: -1.29.
Consider GGAAUUAGUCUCCAAAUAUTT against Sh2d1b1, for which the z-score is inactive: 0.604.
As for GGAUCCUUAAGCUUGGAGCTT against Ascl2, the z-score was inactive: 0.0277.
Regarding GGAGAGGGUAGCUUUAAAUTT against Olfr801, the z-score was inactive: -0.612.
For GGAACUGAUUCUUAGCUACTT against Lrrc39 the value was inactive: 0.822.
On to GGUAGUAGAAGCUGUUAACTT against Slc36a2, for which the z-score was inactive: 0.372.
GGAACAGUCGGCCAUUUAATT against Tmem98: the z-score is inactive: -0.553.
Turning to CGACAUCAAGGAUCGAAUATT against Pkn2, the z-score is inactive: 0.144.
For GCUUUGACCACAUUCAGAGTT against Ncmap the value was inactive: -0.0337.
Turning to GGGUUUUGUUAAUACAUACTT against Rhbdd2, the z-score was inactive: -1.92.
For GGAGUGCAAUUCCUUUCUATT against Ptger3, the z-score is inactive: -1.37.
In the case of GGCCUGAUUACCUUGGAAATT against Papss1, the z-score is inactive: 0.439.
On to GGCUCAUAUUUCCAUCAGATT against Tchhl1, for which the z-score was inactive: -1.13.
Consider CCUGCUAAACCUGGACCAUTT against Hic1, for which the z-score is inactive: 1.61.
As to GGCUGCUGAAGCAAAUAAGTT against Ankrd17, the z-score was active: 3.38.
Regarding GGCUGGAUUAUUUUUUCUUTT against Usp4, the z-score was inactive: 0.921.
GGACUUAAACUUCAUGACATT against Csf2ra: the z-score is inactive: 0.209.
For GGAACAGGAAGUUAAAUACTT against Neu4, the z-score is inactive: 0.482.
As for CGGGCAAGCUCCAAAUGAGTT against Cfap298, the z-score is inactive: 1.31.
GGGAUUUCAAGGAAAUAAGTT against Col28a1: the z-score was inactive: -0.771.
For GGCGAGUUUAUAGAAGAAATT against Phf19, the z-score is inactive: 1.35.
Consider CGGGAUGACUACAAUCUGGTT against Ssbp3, for which the z-score is active: -2.17.
Regarding GGCAUAGUGAAUUUAGUCUTT against Iqub, the z-score is inactive: 0.526.
For GGAACUGUCACAACUGCUATT against Acat3, the z-score was active: 3.22.
The same measure for CCCUCAGAUUCAAAAAGUGTT against Krt1: inactive: 0.233; for GGUUUAUAUUCUUUGUGGATT against Kcnj1: inactive: -0.214; for GGAAUUGUCAGGUCUUGAATT against Tmem174: inactive: -0.311.
With GGCUGGCUUGCUUGUAAUATT against Fam166c, the z-score was inactive: 0.311.
The same measure for GGCCUUGUAAAUUAUGCAUTT against Klhl23: inactive: 0.61.
On to GCGGCAUAAUGGAUAUGACTT against Ckmt1, for which the z-score was inactive: 0.134.
For the sequence GGAGAAGAGAUCCCUGAACTT against Neurod2, the z-score was inactive: -0.491.
The same measure for GGCCGCUACCAGUUCAAUUTT against Hapln2: inactive: 0.879; for GGCACUUUCCCUAUAUUGUTT against Col26a1: inactive: -1.57.
In the case of GCAUCUAUGAUGCAUUUGUTT against Tlr4, the z-score was inactive: -0.153.
Consider CCUAUUCAAUUCAGUUCUATT against Slc36a4, for which the z-score is inactive: 1.6.
UUCAUGUAGGUCUACUAUUTT against Olfr203: the z-score was inactive: -0.104.
For the sequence GCACAAAGUCGACAAUGGATT against Csnk1e, the z-score was inactive: -0.568.
Turning to GGUAUAAAGACCUUUUUUCTT against Bcl7a, the z-score was inactive: -0.481.
Consider CCCAAUGCAAGACAUUAAGTT against Lrrc27, for which the z-score is inactive: -1.54.
The same measure for GGGAACAUAGAGUUGAUCCTT against Pdzk1ip1: inactive: -1.27; for GGUGUCUACGAGUGCUUCGTT against Gpbar1: inactive: 0.081; for GCUAAGUCGGAUGAUAGAATT against Ttc16: inactive: -0.742.
In the case of CCAAGGUUGAGAACAGAUGTT against Rom1, the z-score is inactive: 0.403.
The same measure for GGAGAAAAAAGCAGUGGUUTT against Tk2: inactive: -0.0643; for GGGAUAUUCGAUCCUCUAGTT against Slc22a4: inactive: -0.272.
For the sequence GCUGAUUUGUGGGAUCUGUTT against Trim13, the z-score is inactive: -0.057.
For the sequence GGAAAGAUGGUUUUUGUUUTT against Smug1, the z-score is inactive: 0.847.
As for GGACAUUUCCAAUAACAUUTT against Nifk, the z-score was inactive: 1.04.
For the sequence GGUCGUGGUGAAAACUAAGTT against Nsg1, the z-score was inactive: 0.537.
For the sequence GCAACCGAAGAAUGUUUACTT against Ttbk1, the z-score was inactive: -0.18.
For GCUUUCUUACCAAGAGUCATT against Vsig8, the z-score is active: -2.89.
The same measure for GGUAGUACCACUAACCAAATT against Nrl: inactive: 0.257.
As to GGUCUCAGAAGACCUAGAUTT against Mylpf, the z-score is inactive: -1.91.
The same measure for GGUUCUCUGUGUGAUAGCCTT against Ms4a10: inactive: -0.164; for GGUUUUCCUGUUCAAUUCUTT against Olfr586: active: 2.4.
Turning to GGAAGAACUGAUUGAAGAGTT against Sptlc1, the z-score was inactive: -0.789.
For the sequence CCAUCUUGGAGAUCCUGAUTT against Kat5, the z-score was active: -2.46.
GCACUUGCCAGGUACUAUGTT against Cnga1: the z-score is inactive: 0.391.
For GCCGAGUGGCAAAAGAUGUTT against Ybey the value was inactive: -0.353; for GCUGAUUUCUCAAACAUGATT against Serpinb10, inactive: -0.489; for GGGUACGAUCGUGUGUUGUTT against Rpl8, inactive: 1.43.
With GGACCAUCCAUUGUGAUCUTT against Slc7a3, the z-score is inactive: -1.32.
As to GCAUGAAGUUGCACAUCCCTT against Cox8b, the z-score was inactive: -0.42.
For GGAUAGGACAGAGAUAAAATT against Wnt2b the value was inactive: -0.216; for GGUCACUGAAUUGUCAAUCTT against Polr3h, inactive: 0.773.
Consider GGUCAAUGCCUUUGAGUUUTT against Cdc42ep1, for which the z-score is inactive: -0.366.
The same measure for CGUGUUUGCAUAAUGUUUATT against Arih1: inactive: -1.31.
As for GGAAAUCAAGAAGCAGAUCTT against Epb41l1, the z-score is inactive: 0.399.
Consider GCAGCCUAUGGAAGAUCACTT against Tle4, for which the z-score is active: 2.8.
Consider GGGAUCAACAUUUACCGAATT against Ablim1, for which the z-score was inactive: 0.596.
With GCCUGAACUCCUAUGAGCUTT against Krt42, the z-score was inactive: 1.18.
The same measure for GGCUACAAAGGAGUUCCUATT against Sgf29: inactive: 0.516.
Turning to GGAACCAGUCGACUACUAUTT against Sstr1, the z-score is inactive: 0.214.
With CGGCAGAAGGGUUUUUAUGTT against Rnf126, the z-score is inactive: -0.365.
Turning to GGCUCAGCUAGAGGUUUCUTT against Ugt1a10, the z-score is inactive: -0.989.
On to GGGCCUUAAUUUUCCUUUUTT against Podxl, for which the z-score is inactive: -0.107.
Take CCAAAUGCUAAGUAUACCUTT against Abhd17b: the z-score is inactive: -1.32.
The same measure for GGGAGAAACCAUUUCAAGATT against Gm5084: inactive: 0.0759; for GCUGAUAACAGACAUCAUCTT against Pitpnm2: inactive: 0.836; for CGGUGUUUGAAAUCGUGCATT against Dgcr6: inactive: 0.533.
Consider CCUCAAAUUAUUGUUGGCATT against Ppip5k1, for which the z-score is active: -2.07.
The same measure for GCUUUAGUACAGGCCUCUATT against Tent4a: inactive: 0.444; for CCAAGAGAACUAUUCAGUUTT against Tuba8: inactive: 0.994; for GGCUUUAGAGACAAUAUCATT against Zfand2a: inactive: 0.403.
Consider “GGCACUCCAUAGUGAUUUCTT against 5730522E02Rik”, for which the z-score was inactive: 0.714.
With GGAUAAGCAGUACUUUAAATT against Tiprl, the z-score is inactive: -0.277.
For CCAAUGCUUCGUGAAAGACTT against Eras the value was inactive: -0.382.
For the sequence GCUUCAUCGCAUGAACCGATT against Rabggtb, the z-score was inactive: -0.0795.
The same measure for GGCAUUGCACAAAAUCUAATT against Slc22a22: inactive: 0.909; for GGUGUGUCGAAGUCGAAGGTT against Pip5kl1: inactive: -1.11; for GGGAGUUACCGUUUUGUAUTT against Herc1: inactive: -0.818.
With GUGGGAAACAUUUAAUGCCTT against Vmn1r81, the z-score was inactive: -1.06.
For GGCUGCUACACAUGCAGAUTT against Gucy2e, the z-score was inactive: 0.426.
Regarding GGCAUGGAGAUGCUACUGATT against Ptk2, the z-score is inactive: -0.904.
For GGUGAUGGUGUAAAAUACATT against Dab2, the z-score is active: 4.98.

Values taken from PubChem BioAssay AID1508600 (Functional Genomics Laboratory (NCATS/FGL), 2020).
